# Measurements reported in patent US9820966B2, “Stabilized statin formulations” (Cumberland Pharmaceuticals Inc., priority 2010, dated 2017).
# Details: preliminary lyophilized formulations of AS—Ca with HPβ-CD
compound,measurement,value
"CC(C)c1c(C(=O)Nc2ccccc2)c(-c2ccccc2)c(-c2ccc(F)cc2)n1CC[C@@H](O)C[C@@H](O)CC(=O)O [AS—Ca, atorvastatin calcium trihydrate]",initial stability of lyophilized formulation versus solution,improved stability
